For experiment [1], the target named is zebrafish Asc-Myc (zebrafish) (UniProt Q9I9N6). The experiment in a line: co-IP; HEK293T cells co-transfected, lysed 48 h post-transfection in 50 mM Tris-HCl, 150 mM NaCl, 1% NP40; 1 mg lysate with Myc Affinity Gel 2 h at 4°C; blots probed for Myc and mCherry.
In experiment [2] the target is zebrafish Caiap-mCherry (CARD- and ANK-containing Inflammasome Adaptor Protein fused to mCherry) (zebrafish) (UniProt Q5TYM7). The experiment in a line: gel electrophoresis under non-reducing conditions with blot; lysates of transfected HEK293T cells, with or without FLAG-Caspa, resolved under non-reducing conditions (SDS and β-mercaptoethanol omitted from the loading buffer) and reducing conditions.

Protein sequences, listed by entry. Tags and fused reporters are not part of them.
UniProt Q9I9N6: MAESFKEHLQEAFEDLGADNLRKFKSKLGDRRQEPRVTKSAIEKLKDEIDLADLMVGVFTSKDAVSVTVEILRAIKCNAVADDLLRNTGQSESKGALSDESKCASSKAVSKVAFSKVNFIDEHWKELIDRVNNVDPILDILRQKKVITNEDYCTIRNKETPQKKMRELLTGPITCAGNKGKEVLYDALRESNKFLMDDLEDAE

In publication PMC5662874 one finds binding data, which are given here for one molecule.

Results are given in words; binding and its absence hold for the method and conditions named. For some assays here: In cells and extracts the contact can be indirect. Tags and fused reporters may be left off the sequences shown. Some entries that bind do so weakly or less than the wild type.

B1: zebrafish Caiap-mCherry (CARD- and ANK-containing Inflammasome Adaptor Protein fused to mCherry) (protein, UniProt Q5TYM7 1-744)
chain: MGSTSFTNPYAIEVIQMKRSELVSGILNPEDLLDLLIANGVLQPDIRVLVSDLTVREEKNSRMLNILISRGERACRIFFYPCLKRAEPDLYQHMRTYVGGVNEGIRDARRQLIGYLLEKDKQGLVKNSKPERIHPKSTANEPNNEPLNKQILKSESNHHDAILEAISSGDLYLLQELTKELDVNSVLSSNDTLLHHAAEYGKEAIVYFLLRQGAKLDLKDKEGRTALHRAAQRGHTAVAVALAKAGADIHATDQTSKTPLHLAAQNGHEGCVKALVHEEKKSLKNQTTVLHMAAIEDNATLAEVLLRNGALVDAQDGQRKTALHHAVRHGNEKTAAVLLKAGAQVDSRIVDAAFQLNRKSLLSLFLQHVHESMSQTEINAALFKAVQRNLDAVVAALIEHGADVNSCNELGYTPVLLAAELGNGEAFKVLVSKKAKLDERLPNQMSSLHLAVQSGSIQIAQILLHKGIDPNISGPKDQTPLHLSASHNQPAMMALLLRVGAQLNPVTQDGFTPLHLASQNGHTEAVAQLLEAKADVHAKDKQGRTALHWAAEQGEVAIIQSLLAAGAYSNASEREKKTPLHLAAAEGHTKAVSALLAGKAKVGAKDMDGCSPLHYAARNGKERAGSVLLASSKSKNVDDKNVWRRTALHLAAEHGHEALVGILLENKAKINALDNNKDTPLHCACKTGHLGTVQRLINWTNGERANLQATNNVKKNALQVAEAGDTEAHENISTLLKKKMFLVK
Turning to B1, the binding result in experiment [1] was “no binding”; in experiment [2], “binds”.
